Data: article PMC10648158
No constants are given. Whether binding was seen depends on the method and setting. Some entries that bind do so weakly or less than the wild type.

Protein sequences, listed by entry. Tags and fused reporters are not part of them. Lines headed by an entry give the natural chain unless they say otherwise; changes in a name come on top.
UniProt P02454: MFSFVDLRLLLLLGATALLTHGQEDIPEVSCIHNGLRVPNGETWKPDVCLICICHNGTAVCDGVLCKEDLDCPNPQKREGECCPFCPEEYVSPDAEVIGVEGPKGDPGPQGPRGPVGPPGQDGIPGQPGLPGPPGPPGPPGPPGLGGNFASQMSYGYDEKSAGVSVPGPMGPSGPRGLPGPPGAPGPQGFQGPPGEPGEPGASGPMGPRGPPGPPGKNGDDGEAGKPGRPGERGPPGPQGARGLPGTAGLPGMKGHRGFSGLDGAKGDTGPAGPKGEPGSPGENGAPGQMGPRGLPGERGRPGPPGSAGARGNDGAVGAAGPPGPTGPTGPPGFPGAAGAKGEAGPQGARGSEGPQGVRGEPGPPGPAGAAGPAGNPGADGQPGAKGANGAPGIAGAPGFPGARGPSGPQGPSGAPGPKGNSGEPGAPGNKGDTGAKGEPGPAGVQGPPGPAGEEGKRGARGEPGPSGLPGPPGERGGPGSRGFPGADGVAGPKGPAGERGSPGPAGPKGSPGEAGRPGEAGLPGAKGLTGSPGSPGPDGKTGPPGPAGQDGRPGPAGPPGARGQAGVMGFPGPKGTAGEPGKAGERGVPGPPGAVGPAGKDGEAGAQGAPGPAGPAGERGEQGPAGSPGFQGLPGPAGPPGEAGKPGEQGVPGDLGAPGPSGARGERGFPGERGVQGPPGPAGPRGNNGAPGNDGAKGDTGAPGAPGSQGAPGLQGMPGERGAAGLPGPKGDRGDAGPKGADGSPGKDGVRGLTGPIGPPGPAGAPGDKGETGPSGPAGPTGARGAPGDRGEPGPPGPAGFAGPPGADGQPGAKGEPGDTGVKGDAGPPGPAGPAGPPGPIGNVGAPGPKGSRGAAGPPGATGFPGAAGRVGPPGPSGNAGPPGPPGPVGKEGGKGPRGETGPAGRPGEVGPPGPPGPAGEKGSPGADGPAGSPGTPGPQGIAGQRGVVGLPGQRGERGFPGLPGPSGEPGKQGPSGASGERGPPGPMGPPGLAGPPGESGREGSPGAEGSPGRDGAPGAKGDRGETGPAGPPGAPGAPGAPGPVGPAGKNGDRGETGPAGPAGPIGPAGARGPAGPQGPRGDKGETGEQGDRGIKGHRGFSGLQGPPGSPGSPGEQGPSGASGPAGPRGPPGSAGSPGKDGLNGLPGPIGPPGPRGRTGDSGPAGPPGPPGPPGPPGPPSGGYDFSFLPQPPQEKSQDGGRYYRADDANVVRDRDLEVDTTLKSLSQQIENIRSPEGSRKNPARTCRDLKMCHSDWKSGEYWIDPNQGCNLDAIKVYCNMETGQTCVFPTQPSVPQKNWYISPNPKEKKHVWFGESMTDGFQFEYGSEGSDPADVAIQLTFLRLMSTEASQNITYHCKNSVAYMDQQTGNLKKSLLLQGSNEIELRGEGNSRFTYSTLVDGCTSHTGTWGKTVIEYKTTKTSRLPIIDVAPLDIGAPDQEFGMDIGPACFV
UniProt P02466: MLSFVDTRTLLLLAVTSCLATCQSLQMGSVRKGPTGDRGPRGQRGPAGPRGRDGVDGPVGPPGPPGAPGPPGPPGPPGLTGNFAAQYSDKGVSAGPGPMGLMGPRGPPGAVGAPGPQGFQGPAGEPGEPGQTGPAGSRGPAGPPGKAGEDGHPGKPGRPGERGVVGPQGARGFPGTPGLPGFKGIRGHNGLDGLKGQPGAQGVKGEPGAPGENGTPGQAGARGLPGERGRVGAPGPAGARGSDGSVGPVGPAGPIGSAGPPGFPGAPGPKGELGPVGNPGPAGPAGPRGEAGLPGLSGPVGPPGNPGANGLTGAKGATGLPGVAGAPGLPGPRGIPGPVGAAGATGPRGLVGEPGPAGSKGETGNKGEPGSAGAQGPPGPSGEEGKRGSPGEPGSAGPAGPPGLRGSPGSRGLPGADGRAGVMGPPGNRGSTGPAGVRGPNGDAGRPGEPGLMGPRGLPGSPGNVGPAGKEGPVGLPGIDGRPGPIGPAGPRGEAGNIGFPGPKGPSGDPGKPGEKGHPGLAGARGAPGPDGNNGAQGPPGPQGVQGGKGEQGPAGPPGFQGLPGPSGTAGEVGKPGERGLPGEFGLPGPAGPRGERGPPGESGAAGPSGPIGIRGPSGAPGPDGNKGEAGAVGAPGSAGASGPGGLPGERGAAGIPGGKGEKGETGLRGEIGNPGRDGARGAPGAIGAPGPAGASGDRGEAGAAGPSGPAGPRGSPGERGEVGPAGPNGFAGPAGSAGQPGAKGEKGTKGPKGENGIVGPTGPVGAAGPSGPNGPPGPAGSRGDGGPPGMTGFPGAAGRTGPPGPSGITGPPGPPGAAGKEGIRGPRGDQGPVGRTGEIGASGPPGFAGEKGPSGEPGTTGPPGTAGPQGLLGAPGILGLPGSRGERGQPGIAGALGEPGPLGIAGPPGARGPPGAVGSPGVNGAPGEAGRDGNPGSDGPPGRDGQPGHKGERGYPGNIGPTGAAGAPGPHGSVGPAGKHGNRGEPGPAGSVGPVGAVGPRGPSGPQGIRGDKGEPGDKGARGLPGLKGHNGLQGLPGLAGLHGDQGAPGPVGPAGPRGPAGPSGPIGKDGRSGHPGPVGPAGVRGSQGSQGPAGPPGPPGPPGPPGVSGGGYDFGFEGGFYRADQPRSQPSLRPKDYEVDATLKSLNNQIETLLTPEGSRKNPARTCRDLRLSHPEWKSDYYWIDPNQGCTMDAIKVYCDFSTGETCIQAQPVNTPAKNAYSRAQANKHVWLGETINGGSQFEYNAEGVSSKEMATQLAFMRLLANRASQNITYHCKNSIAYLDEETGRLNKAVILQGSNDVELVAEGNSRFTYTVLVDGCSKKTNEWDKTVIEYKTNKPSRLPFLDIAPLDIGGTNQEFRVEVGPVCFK

Assays:
[1] = target: T1, rat tail Collagen-1 (rat) (UniProt P02454+P02466); test: ELISA; Collagen-1 binding assay as a1, proteins pre-incubated with 100 μM ATPγS; both purified
[2] = target: T1, rat tail Collagen-1 (rat); test: ELISA; Collagen-1 binding assay: 96-well plate coated with polymerised, dried rat tail Collagen-1 (50 μL of 0.02 μg/μL); biotinylated protein in PBS for 1 h at RT; streptavidin-HRP and TMB, absorbance at 607 nm; Kd by non-linear regression, one-site total binding; both purified

binding [1] | binding [2] | Substance
binds | binds | FLAG-Hsp90α D93A (from UniProt P07900 1-732)
binds | binds | FLAG-Hsp90α E47A (from UniProt P07900 1-732)
binds | – | FLAG-Hsp90α WT (from UniProt P07900 1-732)
– | binds weakly | GST-Hsp90-C (623-732) (from UniProt P07900 623-732) (domain or fragment)
– | binds weakly | GST-Hsp90-M (272-617) (from UniProt P07900 272-617) (domain or fragment)
– | binds | GST-Hsp90-N (9-236) (from UniProt P07900 9-236) (domain or fragment)
